Test results: patent publication US20040170997A1
No constants are given. Whether binding was seen depends on the method and setting. For some assays here: In cells and extracts the contact can be indirect. Some entries that bind do so weakly or less than the wild type. Where a sequence is shown, tags or fusion partners need not be part of it.

Legend:
[1] = molecular target: T1, hSos-TRAF3 (full-length TRAF3 fused to hSos) (human) (UniProt Q07889+Q60803); assay: yeast cdc25H growth assay at 37 C (CytoTrap two-hybrid)
[2] = molecular target: T1, hSos-TRAF3 (full-length TRAF3 fused to hSos) (human); assay: yeast cdc25H growth assay (CytoTrap two-hybrid)
[3] = molecular target: T2, FLAG-tagged mouse TRAF3 (mouse) (UniProt Q60803); assay: GST pull-down (conclusion of the example)
T2 sequence (looked up): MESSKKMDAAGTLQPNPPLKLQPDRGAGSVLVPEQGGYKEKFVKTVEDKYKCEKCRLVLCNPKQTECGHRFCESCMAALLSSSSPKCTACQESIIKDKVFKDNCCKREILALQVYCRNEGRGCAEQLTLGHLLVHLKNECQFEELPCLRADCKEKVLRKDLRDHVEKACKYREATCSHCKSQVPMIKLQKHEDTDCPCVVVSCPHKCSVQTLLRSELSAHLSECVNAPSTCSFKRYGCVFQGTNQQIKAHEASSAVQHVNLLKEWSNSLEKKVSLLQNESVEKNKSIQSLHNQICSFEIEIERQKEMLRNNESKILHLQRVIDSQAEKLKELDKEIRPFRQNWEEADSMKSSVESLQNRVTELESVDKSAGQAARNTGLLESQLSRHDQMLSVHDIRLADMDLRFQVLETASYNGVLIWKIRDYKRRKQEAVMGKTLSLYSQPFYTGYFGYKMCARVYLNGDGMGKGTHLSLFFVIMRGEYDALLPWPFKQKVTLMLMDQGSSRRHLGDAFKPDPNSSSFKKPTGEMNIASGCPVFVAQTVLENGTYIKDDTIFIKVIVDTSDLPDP

[4] = molecular target: T2, FLAG-tagged mouse TRAF3 (mouse); assay: GST pull-down from 293 cell lysates with FLAG-tagged TRAF2, TRAF3, TRAF5, TRAF6 (FIG. 2B)
[5] = molecular target: T2, FLAG-tagged mouse TRAF3 (mouse); assay: GST pull-down from 293 cell lysate, anti-FLAG immunoblot (FIG. 2A)
[6] = molecular target: T2, FLAG-tagged mouse TRAF3 (mouse); assay: co-immunoprecipitation (conclusion of the example)
[7] = molecular target: T2, FLAG-tagged mouse TRAF3 (mouse); assay: co-immunoprecipitation from transfected 293 cells, anti-FLAG M2 and anti-MYC 9E10 (FIG. 2C)
[8] = molecular target: T2, FLAG-tagged mouse TRAF3 (mouse); assay: co-immunoprecipitation (legend of FIG. 2C)

B1: clone 3 fused to myristylation signal (pMyr library plasmid) (protein)
chain: SLVSWRWRQQLRTASPDTSEGVQQESLENVFVPSSETPHASAPTWPPLKEDADSALPRHSVPVPATELGSTELVTTKTAGPEQ
modifications: myristylation signal sequence (membrane anchoring in yeast)
Question: Which results are given for B1?
Answer: binding [1]: binds; binding [2]: binds

B2: GST-clone 3 (protein, not shown: a dimerising Fc or GST)
chain: B1 chain
Question: Which binding [3] does the source give for B2 here?
Answer: binds

Question: And the binding [4]?
Answer: binds

Question: What about the binding [5] of the same binder?
Answer: binds

B3: MYC-tagged T3BP (full length T3BP containing C-terminal MYC epitope label) (receptor, not shown: small tags and cut ends)
chain: MGARRLRFRSQRSRDSSVPTQCNQTECFDPLVRNCVSCELFHTPDTGHTSSLEPGTALQPQEGSALRPDVALLVGAPALLGLILALTLVGLVSLVSWRWRQQLRTASPDTSEGVQQESLENVFVPSSETPHASAPTWPPLKEDADSALPRHSVPVPATELGSTELVTTKTAGPEQ
Question: For B3, which binding [6] is on record?
Answer: binds

Question: And the binding [7]?
Answer: binds

Question: And the binding [8]?
Answer: binds
